The source of these data is patent publication EP4669352A1.

Results are given in words; binding and its absence hold for the method and conditions named. Some binding calls cover weakened binding; strength is not graded here.

For assay [1], the target named is VACV A33 recombinant protein (vaccinia virus) (UniProt P68616). Nature of the assay: ELISA on recombinant protein.
Assay [2] shares this target. Nature of the assay: restated from ELISA/BLI. On the technique in general: An ELISA detects its analyte on a solid surface through an enzyme-linked reagent.

B1: EV42 (antibody, V domains shown)
VH: EVQLVESGPRLVKPSETLSLTCAVSGASITSNYWSWIRQPPGKGLEWIGRTPGSSGSTDYNPSLKSRVTISTDTSKNQFSLKLTSVTAADTAVYFCARRYTDSYYLYYFDFWSQGVLVTVSS
VL: QSALTQPPSVSGSPGQSVTISCTGTNSDIGSYKYVSWYQKHPGKAPKLVIYDVSQRPSGVSDRFSGSKSGNTASLTISGLQAEDEADYYCSSYAGINTFNVFGSGTKLTIL
B1: the binding result in assay [1] and in assay [2] was “binds” each time.
